Chains of the proteins cited; added tags and fusions are not shown.
UniProt Q8BTW9: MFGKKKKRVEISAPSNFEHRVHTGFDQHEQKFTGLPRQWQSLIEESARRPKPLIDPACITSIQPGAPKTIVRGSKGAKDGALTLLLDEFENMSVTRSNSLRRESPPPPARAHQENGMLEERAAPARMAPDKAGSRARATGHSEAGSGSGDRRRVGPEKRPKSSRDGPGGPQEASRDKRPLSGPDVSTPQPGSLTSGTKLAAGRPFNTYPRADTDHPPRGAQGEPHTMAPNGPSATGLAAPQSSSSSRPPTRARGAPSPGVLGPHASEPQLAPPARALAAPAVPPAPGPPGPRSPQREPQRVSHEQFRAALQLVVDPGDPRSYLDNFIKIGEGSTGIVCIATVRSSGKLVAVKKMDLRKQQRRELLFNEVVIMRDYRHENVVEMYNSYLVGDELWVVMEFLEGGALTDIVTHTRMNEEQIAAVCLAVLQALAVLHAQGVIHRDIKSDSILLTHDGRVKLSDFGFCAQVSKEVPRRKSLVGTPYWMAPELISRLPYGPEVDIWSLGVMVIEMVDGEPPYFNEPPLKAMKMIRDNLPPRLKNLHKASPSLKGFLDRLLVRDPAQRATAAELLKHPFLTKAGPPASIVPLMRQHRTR
UniProt Q922U2: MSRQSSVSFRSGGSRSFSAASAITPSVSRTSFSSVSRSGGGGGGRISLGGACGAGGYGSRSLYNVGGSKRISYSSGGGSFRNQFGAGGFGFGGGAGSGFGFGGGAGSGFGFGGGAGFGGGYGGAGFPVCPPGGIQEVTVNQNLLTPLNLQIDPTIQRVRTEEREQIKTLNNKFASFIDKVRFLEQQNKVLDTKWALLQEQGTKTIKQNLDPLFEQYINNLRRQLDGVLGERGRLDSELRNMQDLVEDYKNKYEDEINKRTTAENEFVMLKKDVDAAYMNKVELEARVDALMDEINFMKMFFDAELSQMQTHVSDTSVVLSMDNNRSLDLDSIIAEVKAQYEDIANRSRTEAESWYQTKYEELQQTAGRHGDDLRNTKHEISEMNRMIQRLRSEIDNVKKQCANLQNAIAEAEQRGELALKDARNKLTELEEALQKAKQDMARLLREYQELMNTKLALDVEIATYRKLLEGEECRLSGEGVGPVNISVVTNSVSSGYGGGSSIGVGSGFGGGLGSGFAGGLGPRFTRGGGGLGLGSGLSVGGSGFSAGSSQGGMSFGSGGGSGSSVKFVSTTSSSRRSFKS
UniProt P11404: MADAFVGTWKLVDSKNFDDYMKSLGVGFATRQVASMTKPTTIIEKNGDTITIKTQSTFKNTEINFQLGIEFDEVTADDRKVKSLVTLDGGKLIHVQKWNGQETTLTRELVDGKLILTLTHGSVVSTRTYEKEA

According to paper PMC12536042:

Target: p21-activated kinase 4 (Pak4) (mouse (endogenous in TSPCs and tendon tissue of C57BL/6 mice)) (UniProt Q8BTW9)
Assay: affinity purification with mass spectrometry; antibody on magnetic beads (Pierce Direct Magnetic IP/CO-IP kit), lysate overnight at 4 °C; sham group and tendon lesions at 7 days after burn/tenotomy, n = 3; hits identified in all three BTT samples and not in the control group

Row | binding | Substance
1 | binds | Krt5 (from UniProt Q922U2 1-580)
2 | binds | fatty acid binding protein 3 (Fabp3) (from UniProt P11404 1-133)

These are yes or no findings as the source states them, for the method shown. Binding seen in cells or lysates may run through a third protein. Here binding means that the protein was enriched with, or labelled near, the bait; the list need not be complete.
